Data as given in PubChem BioAssay AID1053208 (Peter MacCallum Cancer Centre, 2014).

Screen: 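Genes whose silencing cuts survival of bone tumour cells only with doxorubicin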 (primary screen)
System: mouse osteosarcoma cells, early-passage culture from an engineered mouse model of fibroblastic bone tumour
Reagent: siRNA pool against mouse genes, 40 nM
Timing: about 120 h (48 h before drug, then 72 h with drug)
Conditions: doxorubicin 100 nM for 72 h, roughly 30-40% inhibitory dose
Read-out: 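Luminescent ATP signal taken as viability with or without 100 nM doxorubicin for 72 h; mean of two wells set against non-targeting siRNA and turned into robust z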
Reading the numbers: viability z-score with doxorubicin: higher = more viable cells under doxorubicin; viability z-score without drug: higher = more viable cells with knock-down alone
Rule for the call: 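a pool counts as active when its viability z-score with doxorubicin is -2 or below and its z-score without drug lies between -2 and 2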
In all, the deposit lists about 17,000 reagents; this is an unselected part. 788 of them (4.7%) count as active. 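Calls rest on z-score classes alone; an extra cut-off of viability at most 70% of control was not applied to them.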 The numbers tell different reagents against one gene apart. Not all columns of the deposit are shown. No sequences are given here.

| target | reagent | combined z-score class | viability z-score with doxorubicin | viability z-score without drug | activity call |
| --- | --- | --- | --- | --- | --- |
| Tcp11 (t-complex protein 11) | 1 | low cell count with doxorubicin only | -2.47 | -0.51 | active |
| Pla2g10 (phospholipase A2, group X) | 1 | no change with or without drug | -0.34 | -0.17 | inactive |
| Pdcd6 (programmed cell death 6) | 1 | no change with or without drug | -0.56 | 0.84 | inactive |
| Atp6ap1 (ATPase, H+ transporting, lysosomal accessory protein 1) | 1 | no change with or without drug | 0.9 | -0.51 | inactive |
| Dmtf1l (cyclin D binding myb like transcription factor 1 like) | 1 | no change with or without drug | -0.9 | 0.84 | inactive |
| Wnt10b (WNT family member 10B) | 1 | no change with or without drug | -0.11 | -0.34 | inactive |
| Afg2a (AFG2 AAA ATPase homolog A) | 1 | no change with or without drug | -1.12 | -0.84 | inactive |
| Saraf (store-operated calcium entry-associated regulatory factor) | 1 | no change with or without drug | -0.9 | 1.35 | inactive |
| Trp73 (transformation related protein 73) | 1 | no change with or without drug | -0.45 | 1.69 | inactive |
| Slc25a48 | 1 | no change with or without drug | -0.11 | 1.18 | inactive |
| Zzz3 (zinc finger, ZZ domain containing 3) | 1 | high cell count with doxorubicin only | 2.02 | 0.51 | inactive |
| Cdip1 (cell death inducing Trp53 target 1) | 1 | no change with or without drug | 0.67 | -0.17 | inactive |
| Usp6nl (USP6 N-terminal like) | 1 | no change with or without drug | 0.11 | -0.84 | inactive |
| DDX46 | 1 | no change with or without drug | 0.67 | -0.17 | inactive |
| Hdac6 (histone deacetylase 6) | 1 | no change with or without drug | -0.56 | 0.17 | inactive |
| 1500015L24Rik (RIKEN cDNA 1500015L24 gene) | 1 | no change with or without drug | 0.67 | -0.51 | inactive |
| Kat14 (lysine acetyltransferase 14) | 1 | no change with or without drug | 0.9 | 1.18 | inactive |
| Rnf32 (ring finger protein 32) | 1 | no change with or without drug | 0.34 | -0.51 | inactive |
| Slco1b2 | 1 | no change with or without drug | 0.67 | -0.34 | inactive |
| Or2b7 (olfactory receptor family 2 subfamily B member 7) | 1 | low cell count with doxorubicin only | -2.92 | -1.18 | active |
| Rnf125 (ring finger protein 125) | 1 | no change with or without drug | -0.11 | 0.67 | inactive |
| Ercc4 | 1 | no change with or without drug | 0.45 | 0.84 | inactive |
| Slc16a12 | 1 | no change with or without drug | -0.67 | 0.17 | inactive |
| Frat2 (frequently rearranged in advanced T cell lymphomas 2) | 1 | high cell count with doxorubicin only | 2.81 | 1.85 | inactive |
| Gm9927 (predicted gene 9927) | 1 | no change with or without drug | -1.12 | -1.18 | inactive |
| R3hcc1l (R3H domain and coiled-coil containing 1 like) | 1 | no change with or without drug | 0.67 | 0.67 | inactive |
| Cbr1 (carbonyl reductase 1) | 1 | no change with or without drug | -0.9 | 0.67 | inactive |
| Slc12a2 | 1 | no change with or without drug | -0.67 | 1.52 | inactive |
| Adcy8 (adenylate cyclase 8) | 1 | no change with or without drug | 0.22 | 0 | inactive |
| Ei24 (etoposide induced 2.4 mRNA) | 1 | no change with or without drug | -1.12 | -0.17 | inactive |
| Rab4b (RAB4B, member RAS oncogene family) | 1 | high cell count with and without drug | 2.36 | 2.19 | inactive |
| Rapgef4 (Rap guanine nucleotide exchange factor (GEF) 4) | 1 | no change with or without drug | 0 | -1.01 | inactive |
| Rapgef4 (Rap guanine nucleotide exchange factor (GEF) 4) | 2 | no change with or without drug | -0.22 | 0.17 | inactive |
| Fhad1 (forkhead-associated phosphopeptide binding domain 1) | 1 | no change with or without drug | -0.67 | 1.52 | inactive |
| Serbp1 (serpine1 mRNA binding protein 1) | 1 | no change with or without drug | -0.67 | 0.34 | inactive |
| Asf1a (anti-silencing function 1A histone chaperone) | 1 | no change with or without drug | 0.45 | 0.51 | inactive |
| Snw1 (SNW domain containing 1) | 1 | no change with or without drug | -0.67 | 1.35 | inactive |
| Crhr2 (corticotropin releasing hormone receptor 2) | 1 | no change with or without drug | 1.35 | 1.18 | inactive |
| Dazap2 (DAZ associated protein 2) | 1 | no change with or without drug | 0.45 | 0.34 | inactive |
| Ifna16 (interferon alpha 16) | 1 | low cell count with doxorubicin only | -2.02 | -0.51 | active |
| C1qtnf5 (C1q and tumor necrosis factor related protein 5) | 1 | no change with or without drug | 0 | 1.01 | inactive |
| Xkr8 (XK related 8) | 1 | high cell count without drug only | 1.35 | 3.04 | inactive |
| Vwa1 (von Willebrand factor A domain containing 1) | 1 | no change with or without drug | -0.45 | -0.17 | inactive |
| Or2v2 (olfactory receptor family 2 subfamily V member 2) | 1 | no change with or without drug | -0.22 | -0.67 | inactive |
| Zfp37 (zinc finger protein 37) | 1 | no change with or without drug | 0.22 | 0.84 | inactive |
| Gale (galactose-4-epimerase, UDP) | 1 | no change with or without drug | 0.67 | 0.84 | inactive |
| Sparc (secreted acidic cysteine rich glycoprotein) | 1 | no change with or without drug | 0.45 | -1.52 | inactive |
| 4930563M21Rik (RIKEN cDNA 4930563M21 gene) | 1 | no change with or without drug | -0.67 | 0.34 | inactive |
| Six3 (sine oculis-related homeobox 3) | 1 | no change with or without drug | 0.22 | -0.17 | inactive |
| Kcnt1 (potassium channel, subfamily T, member 1) | 1 | no change with or without drug | -0.9 | -0.51 | inactive |

Only “viability z-score with doxorubicin”, for 7 of the entries above:
Wnt10b (WNT family member 10B)	-0.11
Afg2a (AFG2 AAA ATPase homolog A)	-1.12
Saraf (store-operated calcium entry-associated regulatory factor)	-0.9
Trp73 (transformation related protein 73)	-0.45
Slc25a48	-0.11
Zzz3 (zinc finger, ZZ domain containing 3)	2.02
Cdip1 (cell death inducing Trp53 target 1)	0.67
